For assay [1], the target named is MCL-1 (human (endogenous in HCT116)), Q07820. As to the kind of experiment: co-IP; endogenous proteins in HCT116 lysates (NP40 0.5%, 150 mM NaCl, 50 mM Tris, pH 7.4); overnight at 4 °C with BCL-XL-, MCL-1-, BAX- or NOXA-specific antibodies, protein G agarose, western blot; cells untreated or challenged with NaCl (60 mM, 5 h or 24 h), WEHI-539 (1.25 µM) or S63845 (2.5 µM). The conditions noted are these: remark: other sources report otherwise. (In general: In western blotting, separated proteins are transferred to a membrane and probed.)

Assay [2] deals with BAX (human (endogenous in HCT116)), Q07812. Described as above. The following applies: remark: other sources report otherwise.

The record followed here is paper PMC7171071.

Results are given in words; binding and its absence hold for the method and conditions named. Binding seen in cells or lysates may run through a third protein. Some binding calls cover weakened binding; strength is not graded here.

B1: NOXA, Q13794 1-54 (protein)
chain: MPGKKARKNAQPSPARAPAELEVECATQLRRFGDKLNFRQKLLNLISKLFCSGT
As for B1, the binding entry is “binds” in assay [1] and “no binding” in assay [2].
